Test results published in PMC5593965.
These are yes or no findings as the source states them, for the method shown. Binding seen in cells or lysates may run through a third protein. These calls come from enrichment with a bait or labelling near it, and not all partners need be listed. For some of these results: A no says only that the protein was not detected with the bait.

B1: 30S ribosomal protein S4 (protein, UniProt Q4A9B0 1-205)
chain: MSRYTGSIFRKSRRLGFSILETGKEFAKGKQRRYAPGLHGLRRSKPSDYGVHLREKQKVRFMYGLSEKQFRNTYRKATKKTGIAGTLFLQALESRLDNSVYRAGFAETRRQARQLVNHGHFLVNNKKVDIPSFQLKQGDIFELTTRKDGKIRKNQQILTSLETRTPAAWLEVDKDNFKVVFNRMPERSELNQEIKESLIVEFYSK
B2: 50S ribosomal protein L21 (protein, UniProt Q4AAK2 1-99)
chain: MFAIIKTGGRQLKVEKDQTIFVEKIDKNEGETITFTDILFINGKIGTPYVENASVTGIIEKQGKAKKIVVYRHNPKSTHKRKLGHRQLFTKVKITELKG
B3: 50S ribosomal protein L3 (protein, UniProt Q4AAE0 1-230)
chain: MKGILGKKVGMSQLFTTEGIAIPVSIIEVPENIVTKIITKEKNSYDAIQLAAFDKKQSRFLKPEIGHFAKANTKPKRFIKEFRDFQGYKLGQTVDVSIFSPGEFVDVTGTSKGKGFAGTIKRYNQAIGPRSHGGGGGSKPIRQTGSLGDISGNKVVKGMTMPGRLGHEKVTKQSLEIIKVDKENNLLVLKGSVPGPKKSFLVIKSAIKKPNPKNPVSLFVPNSDKEVKNE
B4: 46 kDa surface antigen (protein, UniProt P0C0J8 28-416)
chain: CGQTESGSTSDSKPQAETLKHKVSNDSIRIALTDPDNPRWISAQKDIISYVDETEAATSTITKNQDAQNNWLTQQANLSPAPKGFIIAPENGSGVGTAVNTIADKGIPIVAYDRLITGSDKYDWYVSFDNEKVGELQGLSLAAGLLGKEDGAFDSIDQMNEYLKSHMPQETISFYTIAGSQDDNNSQYFYNGAMKVLKELMKNSQNKIIDLSPEGENAVYVPGWNYGTAGQRIQSFLTINKDPAGGNKIKAVGSKPASIFKGFLAPNDGMAEQAITKLKLEGFDTQKIFVTGQDYNDKAKTFIKDGDQNMTIYKPDKVLGKVAVEVLRVLIAKKNKASRSEVENELKAKLPNISFKYDNQTYKVQGKNINTILVSPVIVTKANVDNPDA
B5: 30S ribosomal protein S2 (protein, UniProt Q4AAW8 1-318)
chain: MEKLVTQQVQNVDPKQSEILNISEIPAENPTETPIISKQKLLEAGVYFGHKASQWHPKMAQFLLKKKRNETHIIDVLKTQKMLEIAYKLVEKFAQKGAKFIFVGTKKQAKKVIEEQAVRTNSIYVSGRWLGGTLTNNRTILSRLKTMENLEKQAAENFQGYTKKEKLAKQKQLAKLQKNLNGIKGLKDVPLFSLIMLVADPLKDAIAVKEARKKGIKIIGITDSNVDPSLVDFGIPANDDSTKSITLIFTVLADAIASAKGGKKLFAYQSDENIILPEDPEKELKQTRYRNNSFEKFARQKNTLKESQVLKPNTEIQA
B6: Enolase (protein, UniProt Q4AA88 1-451)
chain: MSKITKVFAREILDSRGNPTIQVDVYTLAGGFGSAIVPSGASTGSREALELRDTNTKYADNWYGQKGVMTAVDNVNNIIAPEIIGLCCKNQRLIDQKMIELDGTPNKEKLGANAILGVSLAVAKAAANELRMPLFRYLGGTNPTLMPVPMLNVINGGEHASNTLDFQEFMIMPLGFRTFKEALQAANKVFHNLAKLLKKSGFETQVGDEGGFAPNFNSHEQALDFLVDAIKESGFNPGFKGENAVAIAIDAAASEFYNGQKYVFKKLKSASLNKNQADLDEKFEFNSEELLNYYGQLLAKYPIISIEDGFAESDWQGFIAFNQKYGNNHQIVGDDLTVTNVEILKKAINLKAINSILIKLNQIGTLSETLDAIHLAQKSGMTAVISHRSGESEDTTIADLAVAVSSGQIKTGSLSRTDRIAKYNRLLVIEEYLNSYAKADYIGREVFYNLK
B7: ATP-dependent 6-phosphofructokinase (protein, UniProt Q4AAM2 1-322)
chain: MSKKIGILTSGGDAPGMNSAISFLAKSALSLGFEPYLIFDGYSGIIARKILPAKNFPYNGISSFGGTAIGSSRFPEFKKEEVQNKAVEILSEIGISSLVVVGGDGTYNGGYKLHLKGIKVIALPGTIDNDIQFTDYTIGFDTALNTIVETIDKLRDTANSHRRCFVVEVMGRHCQDLALYSAMATGSEILITNTNILTPEEVSQKVLEQFAKGKPSVIVTITENILPNLKEFAAKIEELTKISTRSLEVGHTQRGGRPSAFDRILAAKMAMKAMELINQDKSGLAISYLDGKIQTFDIAKVVSKPVRKTNDLVLEINKINQN
B8: L-lactate dehydrogenase (protein, UniProt P0C0J3 1-315)
chain: MKPIKIALIGAGNVGNSFLYAAMNQGLASEYGIIDINPDFADGNAFDFEDASASLPFPISVSRYEYKDLKDADFIVITAGRPQKPGETRLELVADNIRIIREIALKVKESGFSGISIIVANPVDIITRAYRDASGFSDQKVIGSGTVLDTARLQFAIAKRAKVSPNSVQAYVMGEHGDSSFVAYSNIKIAGECFCAYSKLTGIDSSNYEKELEYPVSRRAYEIINRKRATFYGIGAAIAKIVSNIIKDTKNIMIAGANLRGEYGFHGVNIGVPVVLGANGIEKIIEISLNDKEKEKFAKSVAIIDKIYQDAIKNI
B9: 50S ribosomal protein L16 (protein, UniProt Q4AAE7 1-136)
chain: MLQPKKTKHRKTFRLYHDKRDAHSGNFVAFGDYGLQATGSAWVSAAQIEAARIAITRRMGREGQVIIRVFPHLALTSKPIGVRMGSGKGSVDRWVAVVKRNTILFEVRGVKDEIARDALRLGGHKLPLKWKIVATV
B10: 50S ribosomal protein L24 (protein, UniProt Q4AAF1 1-107)
chain: MGKIRKNDTVVVLSGDDKGKQGAVLELIPAKKAAIVKGVNIKTKHRKPSNKNTSGEIITFEAPILLSKLALVAKKATKDKPAIPTRVGFKIENKKKIRIAKKTGKAI
B11: 50S ribosomal protein L2 (protein, UniProt Q4AAE3 1-282)
chain: MALKYYKPTTNGRRHMSSLDFGANLTTNKPEKSLLTILKKHSGRNSQGKITVRHQGGRHKRKYRLIDFKRNKDDITGIVKTIEYDPNRSANIALISYIDGEKRYILAPKNLKVGQKISSGPKSDILVGNALPLAKIPEGTFVHNIELKPGAGAKLIRSAGTWAQIQGRDENGKYVILKLKSGEYRRILATCRATIGVVGNEENSLVNIGKAGRNRHKGIRPTVRGSVMNPNDHPHGGGEGKQPIGRKSPLTPWGKKALGVKTRNPKKPSTKLIIRSRKETKK
B12: 30S ribosomal protein S6 (protein, UniProt Q4AA43 1-241)
chain: MPKYEIMTILDPKAEMAIIDNLLKTVFGDNSTEKLRKLETTNLAYSIRKSKIAQYFLVDLNAPTNLIEEFVRRANITREIWRYLIVNLDSEKGLNKKPKIRERNRKYTLRRDRFDKPNFRGNPKSRFDQQDQQATKNQQNFQQNQQNQASQYRENSRQNQDDFQQVSSNQQNFGQNQQNQSGYHRENNRHNQENMHQNNKNHQNQTSQTQRNRRQYQPIKNPKFNQKEKENYNNKKPQSSN
B13: Trigger factor (protein, UniProt Q4AAI5 1-465)
chain: MIKREFLPESAELKIKLTADSKKWAEFYQKAEQKQAAKVSLRGFRKGKVPLEKARAYLNPQAVFELALRMFLPELEKQAATNIIDSDNVIESPIFNIVNMDKNNLEIEFLYPVYPEIKLPDYKNLKTKFAIKKITKEDIELQKQKLLEAKGRFIEVNRPVKIGDVINFNFKGFIDDEPFDGGEGENFDLRIGSNSFIAGFEEQLVGLEIKKEADIYVTFPENYQVHTYANKKARFRVRINKIKENQPAKLTNEFVASLKIQNVETISQLEVYLENLTERENIERAKIDFQRNALTEIGEQVEVPLAKKLINLEIERLNEVFHSTLKQQEIPLKEYLKITKFTEKDIYDQFEVEAKKLLKNSFIFAEIAKLEGLVPTQQEYESHVEKLAKFTGKSVQEISETVSYNEIQINITNQKVIDKLIEFNHEAKDEEIVNKNQNDNEIEQDKEQKDNNEEKIKQENNLENK
B14: DNA-directed RNA polymerase subunit beta (MHJ_0617) (protein, UniProt Q4A970 1-1412)
chain: MNTKVSRQYAKISENSIQKISLALATPEDVLEWSRGEVHRPETINYKTFKPERGGLFDELIFGPLVDYKCSVCGRKYRKSNENQLCIATKECKIRGSRILSKMARRYSMGHIALNAPILHFWFFKIDHSIIAKLLGLKVFEGNSKVPTTITKAAIENLIYYKSHIVLETGGLKSLEQNKIIDISEAGLIYKNALIEIIEFYPPGSEEHNALAESISELADVTSSKIGREYGVDYYELNEIIEEFSSARIATGALAIEYLLDKIDLRAEKAAVEAELAGVQKQIYKNKKIILKNQKRDKLYKRLQVINAFINSGQDPKMMIIRNLPVIPADLRPLVQLDGSRHSTSDCNELYRRIIIRNNRLKRWKAAHAPVIIIQNEMRMLQEAVDALIDNQKKSTNQVTTKEGRPLKSISDALTGKKGRFRQNLLGKRVDYSGRSVIVVGPKLKMHQAGLPRKMAAVLFEPWIIRNLIQEKKVGSIKMARKMIEEENPIIWPHVAKVIQNKPIILNRAPTLHRLSIQAFEPVLVRAKAIQLHPLVTAGFNADFDGDQMAVHIPISPEAIRETQELMFADKNILGPKDGEPIVNPSQDMVLGLYYLSQEKAGAKGEGSFFSTYEAMLKAYEFRSVELHARVVLPFEQVKPFIAKTMRGHLISTVGKFILNNIFPANFPFIFDDNVDELELNYPSQIKKYVLPYGTNFREYIQNLKVNEPLNKKAIAKIVRQIFDTYDGLLAKEDIATVIDQLDFGNYQNCVLRYEKLRDYKKQKLPVPHLSKLSEFTIFEYSQLYKQLQQNGPVESYRVLEDHEKAELLEKIWFKYNNMVCSILDKIKDLGFHYSTLSGTSIAISDIKMAPKKHEFIKEGENYINKLNTFYAKGLITDDERYVLAIAKWTQIKNDIQEDLNQSIKDDNQNSLVMMMKSGARGNISNFVQLAGMRGLMANNVKALKVDAENERVVRSIVEVPVKSSFLEGLTSFEFYSSTHGARKGLTDTALNTAKSGYLTRRLVDVAQNIVVVAEDCFSDFGFVVKDIIDTKTNTIIVPLLERIEGRFLNKDVYDSRGIKLASAGTMVDLQTAKKIVAAGIKKVEIRSILSCHIKNSVCKKCYGKDLATNRLVSIGEAVGIIAAQSIGEPGTQLTMRTFHTGGVANVEDITGGFTRLIELIDSHEHPWGKPAKISPYYGIITKISDLAEKNAANKGFLITIEYKTSKNEKAEHIIRIEQSQKLRVKVGDKVIPGQKLVEGPIILKELLAVSDARTLQNYLLKEIQRIYRMQGISISDKYIEIIIRQMLSKVQIIENGDSNFFIGSIVDISDYQEVNGQLISQNKNPAFGNVIVKGAKQIPLLSNSFLAAASYQETSKILVHSVISSQIDKLEGLKENIIVGHKIPAGTNSNYEPKSKFDIRNPLSFFMKNNR
B15: 30S ribosomal protein S8 (protein, UniProt Q4AAF4 1-131)
chain: MAFITDPIADMLTRIRNATIRKHKNVSFQHSKTKVKILEIIQKAGYIKDFQVEGDLKKNITVELKYKGNLSSISGLKRISKPSLRVYTSASKIPFVQSGFGIAILSTSKGLLTDSQARKENVGGEIIAYIW

Assays:
[1] = target: plasminogen; test: affinity purification with mass spectrometry; plasminogen as bait on an avidin agarose column; M. hyopneumoniae protein lysate loaded in PBS (pH 7.8), washed with 4 column volumes of PBS, eluted with 30% acetonitrile, 0.4% trifluoroacetic acid; elutions separated by 1D-SDS-PAGE and analysed by LC-MS/MS; only the target purified
[2] = target: fibronectin; test: affinity purification with mass spectrometry; fibronectin as bait on an avidin agarose column; M. hyopneumoniae protein lysate loaded in PBS (pH 7.8), washed with 4 column volumes of PBS, eluted with 7 M urea, 2 M thiourea, 40 mM Tris and 1% (w/v) C7BzO; elutions separated by 1D-SDS-PAGE and analysed by LC-MS/MS; only the target purified

Binder | binding [1] | binding [2]
B1 | binds | binds
B2 | binds | –
B3 | binds | –
B4 | binds | binds
B5 | binds | binds
B6 | binds | binds
B7 | binds | –
B8 | binds | binds
B9 | binds | binds
B10 | binds | –
B11 | binds | –
B12 | binds | binds
B13 | binds | –
B14 | – | no binding
B15 | binds | –
